{"sequences": {"note": "Sequences of proteins named here, by UniProt entry; tags and fusion partners are left off. A change or cut given only in a name is not applied to a line headed by its entry.", "UniProt P49137, whole entry, looked up": "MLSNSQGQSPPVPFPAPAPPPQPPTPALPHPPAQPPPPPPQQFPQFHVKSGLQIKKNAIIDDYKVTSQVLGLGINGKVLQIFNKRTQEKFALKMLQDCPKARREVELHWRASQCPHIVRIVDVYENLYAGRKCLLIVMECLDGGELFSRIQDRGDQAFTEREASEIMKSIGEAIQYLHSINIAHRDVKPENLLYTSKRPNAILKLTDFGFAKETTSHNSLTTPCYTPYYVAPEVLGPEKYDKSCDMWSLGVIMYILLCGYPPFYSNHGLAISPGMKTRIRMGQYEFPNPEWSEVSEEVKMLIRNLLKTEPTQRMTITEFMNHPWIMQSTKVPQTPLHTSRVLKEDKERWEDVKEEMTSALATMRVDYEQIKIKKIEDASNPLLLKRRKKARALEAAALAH", "UniProt Q96GX5": "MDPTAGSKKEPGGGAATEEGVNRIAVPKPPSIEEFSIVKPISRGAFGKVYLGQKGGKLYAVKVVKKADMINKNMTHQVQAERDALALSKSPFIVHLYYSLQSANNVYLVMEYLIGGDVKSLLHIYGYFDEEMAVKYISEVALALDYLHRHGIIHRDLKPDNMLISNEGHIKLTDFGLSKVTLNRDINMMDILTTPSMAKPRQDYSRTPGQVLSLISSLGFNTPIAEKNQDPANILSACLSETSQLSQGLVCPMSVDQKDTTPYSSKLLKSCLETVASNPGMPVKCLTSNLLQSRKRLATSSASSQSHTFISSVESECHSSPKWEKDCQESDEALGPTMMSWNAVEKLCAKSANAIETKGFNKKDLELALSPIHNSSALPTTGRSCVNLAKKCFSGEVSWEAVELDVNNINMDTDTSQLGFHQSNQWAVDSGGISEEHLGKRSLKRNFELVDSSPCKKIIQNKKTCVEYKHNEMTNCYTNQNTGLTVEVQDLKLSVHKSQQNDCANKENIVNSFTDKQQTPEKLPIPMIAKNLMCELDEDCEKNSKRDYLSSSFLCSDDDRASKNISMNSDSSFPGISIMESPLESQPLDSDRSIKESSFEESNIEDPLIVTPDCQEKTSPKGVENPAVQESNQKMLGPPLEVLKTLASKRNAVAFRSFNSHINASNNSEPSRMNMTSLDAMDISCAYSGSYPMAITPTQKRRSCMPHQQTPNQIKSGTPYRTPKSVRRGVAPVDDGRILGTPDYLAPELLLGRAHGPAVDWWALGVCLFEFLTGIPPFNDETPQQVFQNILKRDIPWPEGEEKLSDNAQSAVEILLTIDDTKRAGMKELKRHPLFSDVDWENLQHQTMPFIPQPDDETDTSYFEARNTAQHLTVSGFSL", "UniProt Q9H9A6": "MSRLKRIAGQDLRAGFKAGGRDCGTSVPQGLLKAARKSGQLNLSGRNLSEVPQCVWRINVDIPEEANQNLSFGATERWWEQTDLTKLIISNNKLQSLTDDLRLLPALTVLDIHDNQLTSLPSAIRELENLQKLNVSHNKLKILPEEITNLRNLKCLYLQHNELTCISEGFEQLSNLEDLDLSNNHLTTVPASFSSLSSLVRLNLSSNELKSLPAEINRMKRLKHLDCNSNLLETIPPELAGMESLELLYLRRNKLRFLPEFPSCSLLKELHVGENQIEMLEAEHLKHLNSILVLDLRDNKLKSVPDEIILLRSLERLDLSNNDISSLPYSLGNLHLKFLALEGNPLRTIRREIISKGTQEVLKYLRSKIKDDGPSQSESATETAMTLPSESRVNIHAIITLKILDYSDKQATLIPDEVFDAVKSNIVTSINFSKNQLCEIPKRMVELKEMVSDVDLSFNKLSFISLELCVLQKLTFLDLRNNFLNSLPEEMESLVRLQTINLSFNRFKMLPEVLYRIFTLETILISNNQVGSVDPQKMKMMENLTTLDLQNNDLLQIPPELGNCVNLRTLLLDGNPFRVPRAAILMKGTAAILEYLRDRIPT", "UniProt Q8N1G4": "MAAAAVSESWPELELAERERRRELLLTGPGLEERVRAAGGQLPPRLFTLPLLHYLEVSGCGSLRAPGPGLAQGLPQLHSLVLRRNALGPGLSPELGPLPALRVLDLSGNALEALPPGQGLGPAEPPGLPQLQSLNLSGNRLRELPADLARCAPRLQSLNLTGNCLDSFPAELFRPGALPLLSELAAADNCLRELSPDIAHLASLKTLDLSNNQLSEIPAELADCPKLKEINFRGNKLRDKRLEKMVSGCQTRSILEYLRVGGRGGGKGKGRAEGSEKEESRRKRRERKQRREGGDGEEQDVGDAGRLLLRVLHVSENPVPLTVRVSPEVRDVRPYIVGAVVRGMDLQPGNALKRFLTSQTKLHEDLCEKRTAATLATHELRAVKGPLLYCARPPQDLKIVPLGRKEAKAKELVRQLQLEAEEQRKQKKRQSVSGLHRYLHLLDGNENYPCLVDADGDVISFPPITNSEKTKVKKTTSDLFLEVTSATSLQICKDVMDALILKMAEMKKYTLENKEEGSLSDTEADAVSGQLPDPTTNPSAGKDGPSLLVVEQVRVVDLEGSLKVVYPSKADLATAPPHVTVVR", "UniProt P52564": "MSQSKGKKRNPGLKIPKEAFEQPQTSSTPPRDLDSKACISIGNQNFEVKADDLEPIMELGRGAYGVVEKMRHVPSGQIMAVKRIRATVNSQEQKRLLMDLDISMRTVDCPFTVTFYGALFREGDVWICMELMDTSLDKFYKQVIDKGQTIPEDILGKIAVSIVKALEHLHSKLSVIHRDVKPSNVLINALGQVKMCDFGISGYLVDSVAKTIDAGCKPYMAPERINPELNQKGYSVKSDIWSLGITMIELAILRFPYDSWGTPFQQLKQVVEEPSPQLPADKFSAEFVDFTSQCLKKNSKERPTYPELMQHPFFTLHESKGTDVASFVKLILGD", "UniProt Q9Y4Z0": "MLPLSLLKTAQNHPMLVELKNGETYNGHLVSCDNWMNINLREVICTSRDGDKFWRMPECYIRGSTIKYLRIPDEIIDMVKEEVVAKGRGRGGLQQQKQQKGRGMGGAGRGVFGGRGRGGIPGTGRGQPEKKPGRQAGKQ", "UniProt Q9NT99": "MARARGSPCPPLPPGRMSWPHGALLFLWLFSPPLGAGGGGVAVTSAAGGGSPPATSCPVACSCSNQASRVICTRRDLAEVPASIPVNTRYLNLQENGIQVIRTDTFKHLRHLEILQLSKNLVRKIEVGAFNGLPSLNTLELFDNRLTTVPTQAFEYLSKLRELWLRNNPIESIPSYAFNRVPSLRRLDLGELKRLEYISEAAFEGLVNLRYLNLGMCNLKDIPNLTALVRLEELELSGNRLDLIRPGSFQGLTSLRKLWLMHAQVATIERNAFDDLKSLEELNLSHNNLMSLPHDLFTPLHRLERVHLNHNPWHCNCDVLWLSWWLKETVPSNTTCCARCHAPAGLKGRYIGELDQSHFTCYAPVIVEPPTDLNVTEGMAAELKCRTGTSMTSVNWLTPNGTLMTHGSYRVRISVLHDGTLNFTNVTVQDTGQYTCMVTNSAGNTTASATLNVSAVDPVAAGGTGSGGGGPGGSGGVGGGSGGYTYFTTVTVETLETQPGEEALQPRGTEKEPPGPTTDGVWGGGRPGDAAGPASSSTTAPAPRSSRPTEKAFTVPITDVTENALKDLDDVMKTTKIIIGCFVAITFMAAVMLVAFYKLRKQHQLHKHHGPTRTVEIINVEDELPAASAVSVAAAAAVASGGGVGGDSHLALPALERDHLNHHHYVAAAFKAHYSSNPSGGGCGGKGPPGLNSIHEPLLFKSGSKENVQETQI", "UniProt Q9BRK4": "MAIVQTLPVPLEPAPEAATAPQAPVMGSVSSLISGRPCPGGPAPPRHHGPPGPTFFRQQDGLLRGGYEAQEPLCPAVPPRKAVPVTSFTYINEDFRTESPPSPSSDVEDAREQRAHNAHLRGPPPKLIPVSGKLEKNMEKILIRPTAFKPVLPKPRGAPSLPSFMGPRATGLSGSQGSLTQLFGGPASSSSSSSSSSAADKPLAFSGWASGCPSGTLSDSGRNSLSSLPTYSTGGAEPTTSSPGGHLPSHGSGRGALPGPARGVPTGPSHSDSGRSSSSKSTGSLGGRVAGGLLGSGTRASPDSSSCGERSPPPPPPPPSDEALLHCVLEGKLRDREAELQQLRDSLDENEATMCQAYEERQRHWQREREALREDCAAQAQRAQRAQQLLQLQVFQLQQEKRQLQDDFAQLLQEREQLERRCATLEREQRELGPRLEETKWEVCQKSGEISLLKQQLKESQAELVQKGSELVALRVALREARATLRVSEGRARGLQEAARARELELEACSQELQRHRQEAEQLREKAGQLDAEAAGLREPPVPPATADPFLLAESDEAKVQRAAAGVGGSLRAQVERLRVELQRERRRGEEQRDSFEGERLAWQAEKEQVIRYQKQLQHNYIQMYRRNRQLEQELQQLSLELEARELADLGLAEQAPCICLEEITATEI", "UniProt Q9Y6R4": "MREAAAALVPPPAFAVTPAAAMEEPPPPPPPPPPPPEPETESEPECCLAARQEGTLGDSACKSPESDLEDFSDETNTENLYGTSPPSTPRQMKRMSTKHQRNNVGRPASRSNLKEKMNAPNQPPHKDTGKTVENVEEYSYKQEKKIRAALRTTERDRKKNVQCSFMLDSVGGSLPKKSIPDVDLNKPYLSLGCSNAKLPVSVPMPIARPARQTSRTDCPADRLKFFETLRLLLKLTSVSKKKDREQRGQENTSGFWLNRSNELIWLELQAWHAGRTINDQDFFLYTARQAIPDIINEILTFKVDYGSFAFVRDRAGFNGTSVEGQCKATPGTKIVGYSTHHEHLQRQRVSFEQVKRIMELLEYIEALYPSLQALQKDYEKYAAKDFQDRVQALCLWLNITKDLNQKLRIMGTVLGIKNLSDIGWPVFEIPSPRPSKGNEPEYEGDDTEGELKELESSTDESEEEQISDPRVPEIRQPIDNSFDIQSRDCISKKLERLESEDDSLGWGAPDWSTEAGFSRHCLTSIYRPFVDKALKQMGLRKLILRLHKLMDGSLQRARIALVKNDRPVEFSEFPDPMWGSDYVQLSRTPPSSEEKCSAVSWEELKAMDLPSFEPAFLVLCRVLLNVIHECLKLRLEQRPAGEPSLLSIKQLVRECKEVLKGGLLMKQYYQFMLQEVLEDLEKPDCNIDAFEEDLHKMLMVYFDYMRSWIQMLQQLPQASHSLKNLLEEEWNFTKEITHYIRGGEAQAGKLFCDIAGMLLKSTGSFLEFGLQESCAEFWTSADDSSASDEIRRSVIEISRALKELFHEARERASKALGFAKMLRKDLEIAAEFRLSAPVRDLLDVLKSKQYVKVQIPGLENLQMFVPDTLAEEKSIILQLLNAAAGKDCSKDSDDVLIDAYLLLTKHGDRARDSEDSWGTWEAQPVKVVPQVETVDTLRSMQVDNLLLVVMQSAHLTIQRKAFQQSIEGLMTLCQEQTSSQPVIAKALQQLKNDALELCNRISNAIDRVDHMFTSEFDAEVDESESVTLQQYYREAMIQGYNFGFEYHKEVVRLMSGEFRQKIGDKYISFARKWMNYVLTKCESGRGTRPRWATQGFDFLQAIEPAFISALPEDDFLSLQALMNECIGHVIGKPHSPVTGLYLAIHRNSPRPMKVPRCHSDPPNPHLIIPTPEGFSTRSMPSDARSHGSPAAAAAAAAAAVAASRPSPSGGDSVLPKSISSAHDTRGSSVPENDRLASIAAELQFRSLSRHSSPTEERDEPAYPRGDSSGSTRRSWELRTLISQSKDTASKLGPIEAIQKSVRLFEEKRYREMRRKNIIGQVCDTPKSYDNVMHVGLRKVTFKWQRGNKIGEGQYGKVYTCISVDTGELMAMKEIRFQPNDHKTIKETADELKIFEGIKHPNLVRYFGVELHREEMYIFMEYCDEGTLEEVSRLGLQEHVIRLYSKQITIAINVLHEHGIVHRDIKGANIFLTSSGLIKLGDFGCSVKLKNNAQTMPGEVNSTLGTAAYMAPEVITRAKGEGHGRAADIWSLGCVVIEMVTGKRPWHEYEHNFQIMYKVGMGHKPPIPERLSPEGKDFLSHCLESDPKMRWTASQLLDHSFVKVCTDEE", "UniProt Q8N9N7": "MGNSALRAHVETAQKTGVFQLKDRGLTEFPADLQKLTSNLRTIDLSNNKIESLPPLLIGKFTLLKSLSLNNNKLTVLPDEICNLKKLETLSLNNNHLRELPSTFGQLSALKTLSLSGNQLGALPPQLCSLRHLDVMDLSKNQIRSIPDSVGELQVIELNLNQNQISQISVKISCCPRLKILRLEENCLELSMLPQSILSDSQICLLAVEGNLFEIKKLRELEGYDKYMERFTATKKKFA", "UniProt Q9Y383": "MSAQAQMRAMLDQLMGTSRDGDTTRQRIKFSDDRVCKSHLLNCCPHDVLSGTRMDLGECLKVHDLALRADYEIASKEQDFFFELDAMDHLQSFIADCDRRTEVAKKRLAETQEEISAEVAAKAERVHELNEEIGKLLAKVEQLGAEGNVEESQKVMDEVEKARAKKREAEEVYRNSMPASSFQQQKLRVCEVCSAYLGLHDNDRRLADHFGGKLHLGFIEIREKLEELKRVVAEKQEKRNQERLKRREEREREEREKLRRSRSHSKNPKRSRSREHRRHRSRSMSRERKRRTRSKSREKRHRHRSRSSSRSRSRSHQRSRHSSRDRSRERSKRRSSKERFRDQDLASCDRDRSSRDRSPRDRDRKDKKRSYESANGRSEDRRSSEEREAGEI"}, "source": "the supplement of paper PMC11732987", "about": "“Enantioselective OTUD7B fragment discovery through chemoproteomics screening and high-throughput optimisation” (Communications Chemistry, 2025)", "note": "The list shows a part of the results. The data scatter; read single values as rough.", "data": [{"compound": "ClCC(=O)N[C@H]1CCCc2ccccc12", "assay": "log2 mean competition ratio of IA-DTB cysteine labelling (DMSO/compound) (log2 ratio); higher = stronger cysteine engagement by compound", "details": "50 µM; treatment time: 4 h; cell line lysate: HEK293T", "procedure": "(§1)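 IA-DTB competitive cysteine chemoproteomics in HEK293T RIPA lysate. Lysates were treated with compound 29 or 30 at 50 or 200 µM for 4 h, then IA-DTB (500 µM, 1 h), trypsin-digested, NeutrAvidin-enriched and analysed by diaPASEF. Competition ratio = intensity DMSO / intensity compound (n=4 treated, n=64 DMSO); binding: mean log2 CR ≥ 1 and p ≤ 0.05 plus QC filters. Target is the cysteine site.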", "values": [{"target": "MAPKAPK2 C98 (UniProt P49137)", "log2 mean competition ratio": 0.518}, {"target": "MBNL3 C44", "log2 mean competition ratio": -0.0227}, {"target": "MASTL C555 (UniProt Q96GX5)", "log2 mean competition ratio": 0.0505}, {"target": "MCTS1 C14 (UniProt Q9ULC4)", "log2 mean competition ratio": -0.451}, {"target": "LRRC40 C23 (UniProt Q9H9A6)", "log2 mean competition ratio": -0.0442}, {"target": "MALT1 C91 (UniProt Q9UDY8)", "log2 mean competition ratio": -0.138}, {"target": "LRRC47 C367 (UniProt Q8N1G4)", "log2 mean competition ratio": 0.174}, {"target": "MAP2K6 C294 (UniProt P52564)", "log2 mean competition ratio": 0.123}, {"target": "LSM4 C45 (UniProt Q9Y4Z0)", "log2 mean competition ratio": -0.047}, {"target": "MAP2K6 C38 (UniProt P52564)", "log2 mean competition ratio": -0.134}, {"target": "LRRC4B C683 (UniProt Q9NT99)", "log2 mean competition ratio": 0.198}, {"target": "LZTS2 C355 (UniProt Q9BRK4)", "log2 mean competition ratio": 0.206}, {"target": "LRRC1 C104", "log2 mean competition ratio": 0.0325}, {"target": "MAP3K4 C1322 (UniProt Q9Y6R4)", "log2 mean competition ratio": -0.585}, {"target": "MAP3K20 C242 (UniProt Q9NYL2)", "log2 mean competition ratio": -0.317}, {"target": "LRRC57 C82 (UniProt Q8N9N7)", "log2 mean competition ratio": -0.608}, {"target": "MAP3K20 C285 (UniProt Q9NYL2)", "log2 mean competition ratio": -0.726}, {"target": "MACF1 C666", "log2 mean competition ratio": 0.402}, {"target": "LUC7L2 C59 (UniProt Q9Y383)", "log2 mean competition ratio": -0.0866}, {"target": "LYAR C51 (UniProt Q9NX58)", "log2 mean competition ratio": -0.15}]}, {"compound": "ClCC(=O)N[C@H]1CCCc2ccccc12", "assay": "log2 mean competition ratio of IA-DTB cysteine labelling (DMSO/compound) (log2 ratio); higher = stronger cysteine engagement by compound", "details": "200 µM; treatment time: 4 h; cell line lysate: HEK293T", "procedure": "as §1", "values": [{"target": "MAPKAPK2 C98 (UniProt P49137)", "log2 mean competition ratio": -0.119}, {"target": "MBNL3 C44", "log2 mean competition ratio": -0.15}, {"target": "MASTL C555 (UniProt Q96GX5)", "log2 mean competition ratio": 0.199}, {"target": "MCTS1 C14 (UniProt Q9ULC4)", "log2 mean competition ratio": -0.118}, {"target": "LRRC40 C23 (UniProt Q9H9A6)", "log2 mean competition ratio": 0.0984}, {"target": "MALT1 C91 (UniProt Q9UDY8)", "log2 mean competition ratio": 0.281}, {"target": "LRRC47 C367 (UniProt Q8N1G4)", "log2 mean competition ratio": -0.0195}, {"target": "MAP2K6 C294 (UniProt P52564)", "log2 mean competition ratio": -0.282}, {"target": "LSM4 C45 (UniProt Q9Y4Z0)", "log2 mean competition ratio": 0.0988}, {"target": "MAP2K6 C38 (UniProt P52564)", "log2 mean competition ratio": -0.119}, {"target": "LRRC4B C683 (UniProt Q9NT99)", "log2 mean competition ratio": 0.0665}, {"target": "LZTS2 C355 (UniProt Q9BRK4)", "log2 mean competition ratio": 0.395}, {"target": "LRRC1 C104", "log2 mean competition ratio": 0.218}, {"target": "MAP3K4 C1322 (UniProt Q9Y6R4)", "log2 mean competition ratio": 0.00489}, {"target": "MAP3K20 C242 (UniProt Q9NYL2)", "log2 mean competition ratio": -0.145}, {"target": "LRRC57 C82 (UniProt Q8N9N7)", "log2 mean competition ratio": -0.0686}, {"target": "MAP3K20 C285 (UniProt Q9NYL2)", "log2 mean competition ratio": 0.00177}, {"target": "MACF1 C666", "log2 mean competition ratio": -0.182}, {"target": "LUC7L2 C59 (UniProt Q9Y383)", "log2 mean competition ratio": 0.0916}, {"target": "LYAR C51 (UniProt Q9NX58)", "log2 mean competition ratio": 0.0037}]}]}
